Results deposited as PubChem BioAssay AID1224828 (NIAID, 2016)

Aim: 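Regulators linking TLR4 signalling to p65 nuclear translocation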 (primary screen)
Cell system: mouse RAW264.7 G9 macrophage reporter cells (GFP-p65, Tnf promoter-mCherry)
Reagent: siRNA pool against mouse genes, 100 nM
Timing: 2 days siRNA transfection, then 40 min LPS before fixation
Treatment: LPS (Salmonella minnesota R595) at 10 ng/ml
Read-out: 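Microscopy ratio of nuclear to perinuclear-ring GFP-p65 signal, scaled to the plate median; gene score is the average of two replicate robust z-scores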
Reading the numbers: p65 translocation robust z-score: higher = more nuclear NF-kappaB p65 after LPS than the plate median; nuclear/cytoplasmic p65 ratio: higher = more nuclear NF-kappaB p65
Rule for the call: 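Active if robust z is above 3.3 (negative regulators) or below -1.56, the Tlr4 control median (positive regulators); activity score 50 or more; control wells not called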
Calls: active = hit (p65 shift raised or lowered); inactive = no clear change
Shown is one part, drawn at random, of about 17,000 reagents tested. Of all reagents, 762 (4.5%) got an active call. 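Active calls include both raised and lowered p65 entry, mostly lowered; wells with fewer than 50 cells lack a z-score.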 The raw values are shown without normalisation. The numbers tell different reagents against one gene apart. Reagent sequences are not shown.

| p65 translocation robust z-score | nuclear/cytoplasmic p65 ratio, rep 1 | nuclear/cytoplasmic p65 ratio, rep 2 | low cell count flag | Outcome | Gene | reagent |
| --- | --- | --- | --- | --- | --- | --- |
| -0.22 | 1.46 | 1.49 | enough cells to score | inactive | Uqcr11 | 1 |
| 0.88 | 1.48 | 1.59 | enough cells to score | inactive | Gskip | 1 |
| – | 1.35 | 1.07 | fewer than 50 cells per well; well left out of scoring | inactive | Ostm1 | 1 |
| -0.04 | 1.41 | 1.56 | enough cells to score | inactive | Rita1 | 1 |
| – | 1.32 | 1.51 | fewer than 50 cells per well; well left out of scoring | inactive | Ccl3 | 1 |
| 0.18 | 1.55 | 1.41 | enough cells to score | inactive | Rab40b | 1 |
| -0.35 | 1.35 | 1.36 | enough cells to score | inactive | Gcm1 | 1 |
| 0.1 | 1.4 | 1.19 | enough cells to score | inactive | Aknad1 | 1 |
| 1.42 | 1.69 | 1.55 | enough cells to score | inactive | Pah | 1 |
| -0.35 | 1.49 | 1.51 | enough cells to score | inactive | Smad5 | 1 |
| -0.23 | 1.39 | 1.27 | enough cells to score | inactive | Wtap | 1 |
| -0.55 | 1.35 | 1.18 | enough cells to score | inactive | Lins1 | 1 |
| -0.46 | 1.45 | 1.33 | enough cells to score | inactive | Pspn | 1 |
| -0.05 | 1.66 | 1.55 | enough cells to score | inactive | Atrx | 1 |
| – | 1.07 | 0 | fewer than 50 cells per well; well left out of scoring | inactive | Rnf32 | 1 |
| 1.03 | 1.59 | 1.28 | enough cells to score | inactive | Vmn1r28 | 1 |
| -1.92 | 1.3 | 1.26 | enough cells to score | active | Spag1 | 1 |
| -0.09 | 1.41 | 1.38 | enough cells to score | inactive | Abraxas1 | 1 |
| -1.1 | 1.24 | 1.13 | enough cells to score | inactive | Abraxas1 | 2 |
| -0.42 | 1.51 | 1.59 | enough cells to score | inactive | Ablim1 | 1 |
| – | 1.32 | 1.29 | fewer than 50 cells per well; well left out of scoring | inactive | Tph1 | 1 |
| 0.32 | 1.58 | 1.62 | enough cells to score | inactive | Ssr1 | 1 |
| -0.61 | 1.26 | 1.15 | enough cells to score | inactive | Pllp | 1 |
| – | 1.23 | 1.25 | fewer than 50 cells per well; well left out of scoring | inactive | 4930433N12Rik | 1 |
| -0.12 | 1.53 | 1.8 | enough cells to score | inactive | Colec12 | 1 |
| -1.4 | 1.41 | 1.4 | enough cells to score | inactive | Capns1 | 1 |
| -2.63 | 1.04 | 1.1 | enough cells to score | active | Fam110a | 1 |
| -0.84 | 1.53 | 1.33 | enough cells to score | inactive | Oprl1 | 1 |
| 1.28 | 1.68 | 1.65 | enough cells to score | inactive | Krtap6-1 | 1 |
| -1.46 | 1.32 | 1.15 | enough cells to score | inactive | Ctsf | 1 |
| -0.44 | 1.36 | 1.35 | enough cells to score | inactive | Ogfod2 | 1 |
| 0.76 | 1.54 | 1.5 | enough cells to score | inactive | Papln | 1 |
| -0.62 | 1.52 | 1.7 | enough cells to score | inactive | Nrde2 | 1 |

An excerpt from above, limited to “nuclear/cytoplasmic p65 ratio, rep 1”.
Pah: 1.69
Smad5: 1.49
Wtap: 1.39
Lins1: 1.35
Pspn: 1.45
Atrx: 1.66
Rnf32: 1.07
Vmn1r28: 1.59
Spag1: 1.3
Abraxas1 #1: 1.41

Continued.
| p65 translocation robust z-score | nuclear/cytoplasmic p65 ratio, rep 1 | nuclear/cytoplasmic p65 ratio, rep 2 | low cell count flag | Outcome | Gene | reagent |
| --- | --- | --- | --- | --- | --- | --- |
| -0.36 | 1.64 | 1.49 | enough cells to score | inactive | Or8k23 | 1 |
| 0.68 | 1.61 | 1.48 | enough cells to score | inactive | Prom1 | 1 |
| – | 1.52 | 1.58 | fewer than 50 cells per well; well left out of scoring | inactive | Telo2 | 1 |
| 1.43 | 1.72 | 1.73 | enough cells to score | inactive | Fmo2 | 1 |
| 0.88 | 1.73 | 1.83 | enough cells to score | inactive | Gpr107 | 1 |
| – | 1.61 | 1.58 | fewer than 50 cells per well; well left out of scoring | inactive | Ifi27l2b | 1 |
| -0.27 | 1.56 | 1.59 | enough cells to score | inactive | Bmp8a | 1 |
| -0.74 | 1.61 | 1.51 | enough cells to score | inactive | Mesp1 | 1 |
| – | 1.45 | 1.29 | fewer than 50 cells per well; well left out of scoring | inactive | Zfp617 | 1 |
| 0.72 | 1.71 | 1.87 | enough cells to score | inactive | Anapc16 | 1 |
| -1.35 | 1.41 | 1.62 | enough cells to score | inactive | Dcun1d3 | 1 |
| – | 1.59 | 1.55 | fewer than 50 cells per well; well left out of scoring | inactive | Cfap126 | 1 |
| – | 1.19 | 1.05 | fewer than 50 cells per well; well left out of scoring | inactive | Spata16 | 1 |
| 0.27 | 1.11 | 1.45 | enough cells to score | inactive | Llph | 1 |
| -0.09 | 1.4 | 1.26 | enough cells to score | inactive | Pgm3 | 1 |
| 0.76 | 1.54 | 1.68 | enough cells to score | inactive | Traip | 1 |
| – | 1.27 | 1.27 | fewer than 50 cells per well; well left out of scoring | inactive | Rexo1 | 1 |
| 0.57 | 1.69 | 1.71 | enough cells to score | inactive | Rspry1 | 1 |
| 0 | 1.63 | 1.74 | enough cells to score | inactive | Acap1 | 1 |
| – | 1.18 | 1.16 | fewer than 50 cells per well; well left out of scoring | inactive | Elavl1 | 1 |
| 1.23 | 1.8 | 1.96 | enough cells to score | inactive | Uri1 | 1 |
| 0.8 | 1.63 | 1.58 | enough cells to score | inactive | Ift46 | 1 |
| -0.37 | 1.47 | 1.53 | enough cells to score | inactive | Setmar | 1 |
| -0.05 | 1.66 | 1.39 | enough cells to score | inactive | Mettl14 | 1 |
| -0.56 | 1.37 | 1.38 | enough cells to score | inactive | Pou6f1 | 1 |
| 1.16 | 1.49 | 1.34 | enough cells to score | inactive | Pth2 | 1 |
